PubChem BioAssay AID1224828, NIAID, 2016
This is an unselected part of about 17,000 deposited reagents. 762 of all reagents (4.5%) were called active. 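Active calls include both raised and lowered p65 entry, mostly lowered; wells with fewer than 50 cells lack a z-score.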 Raw values are not corrected between plates. A number with no mark means an inactive call.

- Assay: 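Regulators linking TLR4 signalling to p65 nuclear translocation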 (primary screen)
- Cell system: mouse RAW264.7 G9 macrophage reporter cells (GFP-p65, Tnf promoter-mCherry)
- Reagent: siRNA pool against mouse genes, 100 nM
- Duration: 2 days siRNA transfection, then 40 min LPS before fixation
- Treatment: LPS (Salmonella minnesota R595) at 10 ng/ml
- Measurement: 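Imaged p65 nuclear translocation ratio, normalised to the plate median, converted to robust z-scores and averaged across two replicates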
- Reading the numbers: p65 translocation robust z-score: higher = more nuclear NF-kappaB p65 after LPS than the plate median; nuclear/cytoplasmic p65 ratio: higher = more nuclear NF-kappaB p65
- Call rule: 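Called active when z exceeds 3.3 or falls under -1.56 (median of Tlr4 controls), giving activity score of at least 50; no calls for control wells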
- Calls: active = hit (p65 shift raised or lowered); inactive = no clear change

The first 5 records as a preview:
| gene | p65 translocation robust z-score | nuclear/cytoplasmic p65 ratio, rep 1 | nuclear/cytoplasmic p65 ratio, rep 2 | low cell count flag |
| --- | --- | --- | --- | --- |
| F3 (coagulation factor III, tissue factor) | 0.99 | 1.65 | 1.44 | enough cells to score |
| Tnfrsf13b (tumor necrosis factor receptor superfamily, member 13b) | 0.11 | 1.45 | 1.62 | enough cells to score |
| Disp1 (dispatched RND transporter family member 1) | -0.82 | 1.36 | 1.25 | enough cells to score |
| Plekhm1 (pleckstrin homology and RUN domain containing M1) | 0.33 | 1.4 | 1.27 | enough cells to score |
| Tmem121b (transmembrane protein 121B) | -0.39 | 1.51 | 1.74 | enough cells to score |

The listing, from the start:
| gene | p65 translocation robust z-score | nuclear/cytoplasmic p65 ratio, rep 1 | nuclear/cytoplasmic p65 ratio, rep 2 | low cell count flag |
| --- | --- | --- | --- | --- |
| F3 (coagulation factor III, tissue factor) | 0.99 | 1.65 | 1.44 | enough cells to score |
| Tnfrsf13b (tumor necrosis factor receptor superfamily, member 13b) | 0.11 | 1.45 | 1.62 | enough cells to score |
| Disp1 (dispatched RND transporter family member 1) | -0.82 | 1.36 | 1.25 | enough cells to score |
| Plekhm1 (pleckstrin homology and RUN domain containing M1) | 0.33 | 1.4 | 1.27 | enough cells to score |
| Tmem121b (transmembrane protein 121B) | -0.39 | 1.51 | 1.74 | enough cells to score |
| Zfp706 (zinc finger protein 706) | – | 1 | 1.07 | fewer than 50 cells per well; well left out of scoring |
| Or8b12c (olfactory receptor family 8 subfamily B member 12C) | -0.48 | 1.38 | 1.25 | enough cells to score |
| Klrb1a (killer cell lectin-like receptor subfamily B member 1A) | 2.96 | 2.02 | 1.78 | enough cells to score |
| 4921504E06Rik (RIKEN cDNA 4921504E06 gene) | 0.07 | 1.88 | 1.27 | enough cells to score |
| Zfp180 (zinc finger protein 180) | -0.04 | 1.4 | 1.24 | enough cells to score |
| Acvr1 (activin A receptor, type 1) | -0.4 | 1.92 | 1.33 | enough cells to score |
| Rcn2 (reticulocalbin 2) | 2.56 | 1.75 | 1.51 | enough cells to score |
| Serpine2 (serine (or cysteine) peptidase inhibitor, clade E, member 2) | -2.15 (active) | 1.29 | 1.2 | enough cells to score |
| Gmfb (glia maturation factor, beta) | 0.42 | 1.71 | 1.48 | enough cells to score |
| Eci1 (enoyl-Coenzyme A delta isomerase 1) | -0.65 | 1.39 | 1.28 | enough cells to score |
| Nae1 (NEDD8 activating enzyme E1 subunit 1) | 0.9 | 1.83 | 1.55 | enough cells to score |
| Cd200 (CD200 molecule) | 0.64 | 1.44 | 1.5 | enough cells to score |
| Rcvrn (recoverin) | 0.05 | 1.76 | 1.3 | enough cells to score |
| Slc20a1 | 0.54 | 1.41 | 1.37 | enough cells to score |
| Cdc123 (cell division cycle 123) | 1.43 | 1.62 | 1.56 | enough cells to score |
| Pglyrp3 (peptidoglycan recognition protein 3) | -0.62 | 1.35 | 1.18 | enough cells to score |
| Abhd17c (abhydrolase domain containing 17C) | – | 1.28 | 1.06 | fewer than 50 cells per well; well left out of scoring |
| Tmem169 (transmembrane protein 169) | 2.3 | 1.66 | 1.86 | enough cells to score |
| 4930566N20Rik (RIKEN cDNA 4930566N20 gene) | – | 1.34 | 1.39 | fewer than 50 cells per well; well left out of scoring |
| Mus81 (MUS81 structure-specific endonuclease subunit) | 0.81 | 1.89 | 1.73 | enough cells to score |
| Syt11 (synaptotagmin XI) | -0.16 | 1.35 | 1.16 | enough cells to score |
| Trim39 (tripartite motif-containing 39) | – | 1.4 | 1.13 | fewer than 50 cells per well; well left out of scoring |
| Smchd1 (SMC hinge domain containing 1) | – | 1.25 | 1.46 | fewer than 50 cells per well; well left out of scoring |
| Pak5 (p21 (RAC1) activated kinase 5) | -1.37 | 0 | 1.2 | enough cells to score |
| Ctdsp1 (CTD small phosphatase 1) | -0.24 | 1.46 | 1.33 | enough cells to score |
| H2al2a (H2A histone family member L2A) | -0.18 | 1.37 | 1.4 | enough cells to score |
| Syt2 (synaptotagmin II) | 0.47 | 1.5 | 1.24 | enough cells to score |
| Ganc (glucosidase, alpha; neutral C) | – | 1.2 | 1.39 | fewer than 50 cells per well; well left out of scoring |
| Faim (Fas apoptotic inhibitory molecule) | 0.18 | 1.48 | 1.4 | enough cells to score |
| Pde6d (phosphodiesterase 6D, cGMP-specific, rod, delta) | -0.18 | 1.38 | 1.43 | enough cells to score |
| 4933430I17Rik (RIKEN cDNA 4933430I17 gene) | -0.74 | 1.32 | 1.31 | enough cells to score |
| Srsf9 (serine and arginine-rich splicing factor 9) | 0.13 | 1.47 | 1.23 | enough cells to score |
| Igfbp2 (insulin-like growth factor binding protein 2) | -0.11 | 1.44 | 1.34 | enough cells to score |
| Bbs2 (Bardet-Biedl syndrome 2) | 0.1 | 1.6 | 1.66 | enough cells to score |
| Stard6 (StAR related lipid transfer domain containing 6) | 0.07 | 1.46 | 1.21 | enough cells to score |
